# Assay results published in patent publication US20260199479A1, “DRUG LINKER AND LINKER-CONJUGATED COMPOUND” (Anti-Microbial Savior BioteQ Co., Ltd., priority 2022, published 2026).
# At least one read-out could not be matched to a standard name with certainty.
# Experiment: Water solubility test (HPLC)
# Format: physicochemical
# Conditions: drug linker vs farnesol
# Description: 5 mg of the standard test compound was weighed and dissolved in 5 mL of IPA as a stock solution (1 mg/mL). Double distilled water was then diluted to prepare 1000, 100, 50, 25, 12.5, 10, 5, 2.5, 1.25, 1, 0.5, 0.25, 0.125 μg/mL standard solution calibration lines. 60 μL of each concentration standard solution was used for HPLC analysis. Peak areas were integrated to establish a calibration line, and the accuracy of the analysis method was evaluated through the correlation coefficient (R-squared).
# 1 mL of double distilled water was weighed into a microcentrifuge tube and the test compound was dissolved. Undissolved compounds were ensured to be still present by vortexing for 5 min and sonicating for 20 min. After centrifugation, the supernatant was filtered through a 0.22 μm PTEF membrane. The […] was analyzed by HPLC and the water solubility was calculated from the peak area.
smiles,measurement,value
"C/C(=C\CO)CC/C=C(\C)CCC(O)C(C)C(=O)O (stereo not shown) [Linker of the present invention, (6E,10E)-3,12-dihydroxy-2,6,10-trimethyldodec-6,10-dienoic acid]",increase of water solubility compared with farnesol,~9 times
